Test results published in PubChem BioAssay AID588497 (NMMLSC, 2011).
The whole screen tested about 360,000 compounds, of which about 780 (0.22%) were called active. The shares of active, inactive and inconclusive entries below differ from those in the screen. Rule as the data show it: active = inhibition above about 35% (passing the limit was not always enough); inconclusive = no clear call, values can overlap the other calls.

tested on: Botulinum neurotoxin type F light chain protease (Clostridium botulinum); experiment: BoNT/F light chain protease inhibitors, primary screen, biochemical, flow cytometry, MLPCN library (AID 588497); conditions: Multiplex microsphere protease cleavage assay, at 10 µM, hits give high values; also: plate controls were buffer without enzyme for full effect and enzyme alone for no effect

SMILES | inhibition
Cc1ccc(C2Nc3ccccc3C(=O)N2CCN2CCNC2=O)cc1 (configuration not stated) | inconclusive: -52.8%
Clc1ccc(SCc2cn3ccccc3n2)cc1 | inactive: 1.2%
O=S(=O)(c1ccccc1)c1nc(-c2cccs2)oc1NCCCn1ccnc1 | inconclusive: -48.9%
COc1cc(OC)cc(C(=O)N2CCN(C(=O)c3cccnc3)CC2)c1 | inconclusive: 20.2%
O=C(Nc1ccccc1F)c1ccc2c(c1)OCO2 | inconclusive: 14.4%
Cc1ccc(NC(=S)N2CCC(C(=O)c3ccc(F)cc3)CC2)cc1C | inconclusive: 10.9%
Cn1c(SCc2cccc(Br)c2)nc2c1c(=O)[nH]c(=O)n2C | inconclusive: 7.4%
CCOc1ccccc1NC(=O)CN1C(=O)COc2ccc(C)cc21 | inconclusive: 26.2%
COc1ccc(NC(=O)C2CC(c3c(F)cccc3Cl)=NO2)cc1OC (configuration not stated) | inconclusive: -45.4%
CC(=O)Nc1sc(C)c(C)c1C(=O)OCC(=O)NCc1ccccc1 | inconclusive: 9.2%
COC(=O)Cn1cc(/C=C2\C(=O)NC(=O)N(c3ccc(OC)cc3)C2=O)c2ccccc21 | inactive: 19.8%
CN(CC(=O)NCc1ccc(F)cc1)CC(=O)Nc1ccc(Cl)c(C(F)(F)F)c1 | inconclusive: -1.6%
CN(C)S(=O)(=O)c1ccc(-c2csc(N/N=C/c3ccco3)n2)cc1 | inactive: -5.4%
Brc1cccc(CNc2nc3ccccc3n2CCN2CCCCC2)c1 | inconclusive: -10.5%
Cc1ccc(S(=O)(=O)N2CCC(=O)N([C@H](COCc3cccc(C)c3)C(C)C)CC2)cc1 | inactive: -3%
N#Cc1ccccc1OCC(=O)NNC(=O)CCNC(=O)c1ccccc1 | inactive: 2.5%
COc1ccccc1NC(=O)c1ccc2nc(C)sc2c1 | inconclusive: -22.1%
Cc1ccc(NC(=O)CCc2c(C)nn(-c3ccc(N4CCOCC4)nn3)c2C)c(C)c1 | inconclusive: 39.5%
Cc1ccc2nc(CCCc3nc4ccc(C)cc4[nH]3)[nH]c2c1 | inconclusive: 11.4%
NC(=O)COC(=O)c1cc(=O)[nH]c2ccccc12 | inactive: -5.4%
Cn1c(Cc2cccs2)nnc1SCC(=O)N1CCc2ccccc21 | inconclusive: 2.7%
O=C(CN1CCOCC1)N/N=C/c1cccc2ccccc12 | inconclusive: 2%
CCn1nc(C)cc1-c1nnc(SCC(=O)Nc2ccccc2)n1CCCOC | inconclusive: -68.6%

SMILES | inhibition
COc1ccc(CC(=O)Nc2cc(C)ccn2)cc1OC | inconclusive: -27.7%
CCCNc1nc2ccccc2n2c(C)nnc12 | inactive: 17.4%
COc1ccc(-n2c(SCC(=O)Nc3ccccc3OC)nc(O)cc2=O)cc1 | inconclusive: -45.8%
COc1ccccc1C1=NOC(C)(c2nnc(-c3cccc(Cl)c3)o2)C1 (configuration not stated) | inactive: -8.9%
S=C(NCc1ccco1)N/N=C/c1ccncc1 | inconclusive: 91%
O=C(N1CCCCCC1)N1CCN(S(=O)(=O)N2CCCCC2)CC1 | inconclusive: -104%
COc1cccc(C2NC(=S)NC3=C2CCc2ccccc23)c1 (configuration not stated) | inactive: -11.4%
CNc1nc(Cl)c(SC)c(NCc2ccc(F)cc2)n1 | inconclusive: 1.3%
O=C(C1CC(=O)N(c2ccc3c(c2)OCCO3)C1)N1CCN(Cc2ccccc2)CC1 (configuration not stated) | inconclusive: -14.1%
O=c1cc(NC2CCCCC2)[nH]c(=O)[nH]1 | inconclusive: 19.6%
N#Cc1ccc(N2CCN(C(=O)c3cccs3)CC2)c(F)c1 | inconclusive: -17.4%
COc1cccc(C(NC(C)=O)c2ccc3cccnc3c2O)c1 (configuration not stated) | inconclusive: -24.3%
CCCCN=C[C@]12CCC(O)CC1(O)CCC1[C@@H]2CC[C@]2(C)[C@H](C3C=CC(=O)O3)CCC12O (some centres not stated) | inactive: 5.5%
CCOC(=O)c1[nH]c(C)c(C(=O)OCCN2C(=O)c3ccccc3C2=O)c1C | inactive: -4.6%
COc1ccc(CNC(=O)CSc2nc(SC)ns2)cc1 | inconclusive: -10.1%
Cc1ccc(N=Nc2c(C)[nH]n(-c3ccccc3)c2=O)cc1Br | inconclusive: 8.5%
CC(=O)c1ccc(NC(=O)C2CCCO2)cc1 (configuration not stated) | inconclusive: 40.7%
NC(=O)N/N=C/c1sc(=O)n(-c2ccccc2)c1Cl | inconclusive: -8.7%
COc1ccc(C(=O)Nc2ccccc2C(=O)NCCN2CCOCC2)cc1 | inactive: -4.3%
CC1(c2nc3ccccc3[nH]2)c2ccccc2C(=O)N1C1CC1 (configuration not stated) | inactive: 7.9%
CCCC(C(=O)Nc1cccc(S(=O)(=O)N2CCCC2)c1)c1ccccc1 (configuration not stated) | inconclusive: 5.6%
Cc1cc(Br)ccc1NC(=O)CN(C)C(=O)C1CSC2(C)CCC(=O)N12 (configuration not stated) | inactive: -9%
CCOC(=O)Cc1c(C)nc2c(-c3ccc(Cl)cc3)c(C)[nH]n2c1=O | inactive: -3.8%

For convenience, part of the list above.
SMILES | inhibition
Cc1cc(Br)ccc1NC(=O)CN(C)C(=O)C1CSC2(C)CCC(=O)N12 (configuration not stated) | inactive: -9%
CCOC(=O)Cc1c(C)nc2c(-c3ccc(Cl)cc3)c(C)[nH]n2c1=O | inactive: -3.8%

Next compounds.

SMILES | inhibition
c1ccc(-c2cccs2)nc1 | inconclusive: -23.9%
CCN(CC)CCn1c(=O)n(-c2ccc(Cl)cc2)c(=O)c2c3c(sc21)CN(C)CC3 | inconclusive: 77%
Clc1ccc(/C=N/N2CCCCC2)cc1 | inconclusive: 88.7%
C=CCSc1cc(C)nc2c(-c3ccccc3)c(C)nn12 | inconclusive: 28.4%
CCOC(=O)Cn1c(=N)n(CCOc2ccc(Br)cc2)c2ccccc21 | inconclusive: 51%
CN(C(=O)COC(=O)c1ccccc1Cc1ccccc1)c1c(N)n(Cc2ccccc2)c(=O)[nH]c1=O | inconclusive: 7%
COc1ccccc1C1C2=C(CC(C)(C)CC2=O)N(CC(=O)O)C2=C1C(=O)CC(C)(C)C2 | inconclusive: -28.3%
CC(C)Oc1ccc(CCC(=O)N/N=C/c2ccncc2)cc1 | inconclusive: -16.7%
CN(CC(=O)Nc1cccc(Cl)c1)S(=O)(=O)/C=C/c1ccccc1 | inactive: -10.1%
S=c1[nH]nc(-c2cc(-c3ccccc3)n[nH]2)n1/N=C/c1cccs1 | inconclusive: 25.5%
COc1ccc(/C=N/N2CCN(Cc3ccc(C)cc3)CC2)cc1Br | active: 43.3%
NC(=O)N/N=C\c1cccs1 | inconclusive: 33.4%
O=C(Nc1cccc(C(=O)O)c1)/C(=C\c1ccccc1)NC(=O)c1ccccc1Cl | active: 41.1%
O=C(Nc1ccc(Cl)cc1)Nc1ccccc1Sc1ncc([N+](=O)[O-])s1 | inconclusive: -66.6%
CCCCC(=O)Nc1cccc(NC(=O)c2cccnc2Cl)c1 | inconclusive: -25%
O=C1C2CCCN2C(=S)N1C1CCCCC1 (configuration not stated) | inconclusive: -17.4%
COc1ccc2cc(C(c3nnnn3C3CCCC3)N3CCOCC3)c3nnnn3c2c1 (configuration not stated) | inactive: 0.6%
Cc1cc(S(=O)(=O)NCC(C)C)ccc1OCC(=O)N1CCOCC1 | inconclusive: 17%
O=C(NNS(=O)(=O)c1ccccc1)c1cccc(F)c1 | inconclusive: -32%
CCc1ccc(-c2nc(SCC(=O)NC3CCS(=O)(=O)C3)n[nH]2)cc1 (configuration not stated) | inconclusive: -9.9%
Cc1oc(-c2ccc(Cl)cc2)nc1CN1CCCC(C(=O)N2CCN(C(=O)c3ccco3)CC2)C1 (configuration not stated) | inactive: 2.1%
Nc1cc(N)nc(SCC(=O)N2CCN(S(=O)(=O)c3ccccc3)CC2)n1 | inactive: -5%
CNS(=O)(=O)c1cccc(C(=O)OCC(=O)c2ccc(S(=O)(=O)N3CCCCC3)cc2)c1 | inconclusive: -1.9%

Reprinted at random: 4 compounds from above.
SMILES | inhibition
CCN(CC)CCn1c(=O)n(-c2ccc(Cl)cc2)c(=O)c2c3c(sc21)CN(C)CC3 | inconclusive: 77%
O=C1C2CCCN2C(=S)N1C1CCCCC1 (configuration not stated) | inconclusive: -17.4%
Clc1ccc(/C=N/N2CCCCC2)cc1 | inconclusive: 88.7%
Nc1cc(N)nc(SCC(=O)N2CCN(S(=O)(=O)c3ccccc3)CC2)n1 | inactive: -5%

More entries

SMILES | inhibition
O=C1Cc2ccccc2C(c2c(Cl)cccc2Cl)N1 (configuration not stated) | inconclusive: 26.8%
Oc1c(Cl)cc(Cl)cc1/C=N/NC(=S)NC1CC2C=CC1C2 (configuration not stated) | inconclusive: -19.3%
Nc1cc2nc3ccccc3nc2cc1N | inactive: -5.7%
COc1ccc(CN2CCOCCOCCOCC2)cc1 | inconclusive: 47.5%
Cc1nc(C(F)(F)F)c(C(=O)NC(=O)Nc2ccccc2)s1 | inactive: 0%
COC(=O)[C@]12CCCCC=C1N(Cc1ccccc1)C(=O)[C@H](CC(=O)NCc1cccs1)C2 | inactive: -1.3%
CC(C(=O)NNS(=O)(=O)c1cccc(C(F)(F)F)c1)n1nnc(N2CCOCC2)n1 (configuration not stated) | inconclusive: -78.7%
CC(=O)C[C@H](O)CC(=O)[C@H]1OC(=O)[C@H](C)CCCCc2ccccc21 | inactive: -7.2%
O=C(CCC(=O)N(CC(=O)NC1CCCC1)c1ccc(F)cc1)Nc1nccs1 | inactive: 4.4%
Cc1ccc(S(=O)(=O)NCc2cccnc2)cc1 | inconclusive: 10.9%
CC(C)C(=O)Nc1ccc2c(c1)oc1ccccc12 | inconclusive: 15.5%
COC(=O)[C@H](CC(C)C)NC(=O)NC1CCCCC1C (some centres not stated) | inactive: 6.4%
Cc1ccc(-c2csc(C(O)c3ccccc3)n2)cc1C (configuration not stated) | inactive: -0.3%
O=C(Cn1cnc2ccccc21)Nc1ccccc1-c1ccccc1 | inconclusive: -3.5%
Nc1cc(=O)[nH]c(=S)n1-c1cccc(C(F)(F)F)c1 | inactive: -2.1%
CCOC(=O)CSc1nnc(-c2c[nH]c3ccccc23)o1 | inconclusive: -12%
COc1cc(C(O)c2nc(-c3ccccc3)cs2)ccc1F (configuration not stated) | inactive: 4.4%
O=C(COn1nnc2ccc(S(=O)(=O)N3CCOCC3)cc21)NCCc1ccccc1 | inconclusive: -9.1%
CCc1ccccc1-n1c(SCC(=O)NC)nnc1-c1ccco1 | inconclusive: -30.4%
O=C(CCc1ccc(S(=O)(=O)N2CCOCC2)cc1)Nc1ccc(N2CCOCC2)cc1 | inconclusive: 16%
O=C(c1ccccc1)C1CCN(c2ncccc2[N+](=O)[O-])CC1 | inconclusive: -62.6%
FC(F)(F)c1cnc(COc2cc(Cl)cc(Cl)c2)c(Cl)c1 | inconclusive: -69.8%
O=c1cc(N/N=C/c2ccccc2)[nH]c(=O)[nH]1 | inconclusive: 35.1%
